Measurements taken from PMC4381397, “The recently identified modifier of murine metastable epialleles, Rearranged L-Myc Fusion, is involved in maintaining epigenetic marks at CpG island shores and enhancers”.
These are yes or no findings as the source states them, for the method shown. Binding seen in cells or lysates may run through a third protein. Some entries that bind do so weakly or less than the wild type.

By UniProt entry, the sequences of proteins in these tests, tags left out.
UniProt Q13129: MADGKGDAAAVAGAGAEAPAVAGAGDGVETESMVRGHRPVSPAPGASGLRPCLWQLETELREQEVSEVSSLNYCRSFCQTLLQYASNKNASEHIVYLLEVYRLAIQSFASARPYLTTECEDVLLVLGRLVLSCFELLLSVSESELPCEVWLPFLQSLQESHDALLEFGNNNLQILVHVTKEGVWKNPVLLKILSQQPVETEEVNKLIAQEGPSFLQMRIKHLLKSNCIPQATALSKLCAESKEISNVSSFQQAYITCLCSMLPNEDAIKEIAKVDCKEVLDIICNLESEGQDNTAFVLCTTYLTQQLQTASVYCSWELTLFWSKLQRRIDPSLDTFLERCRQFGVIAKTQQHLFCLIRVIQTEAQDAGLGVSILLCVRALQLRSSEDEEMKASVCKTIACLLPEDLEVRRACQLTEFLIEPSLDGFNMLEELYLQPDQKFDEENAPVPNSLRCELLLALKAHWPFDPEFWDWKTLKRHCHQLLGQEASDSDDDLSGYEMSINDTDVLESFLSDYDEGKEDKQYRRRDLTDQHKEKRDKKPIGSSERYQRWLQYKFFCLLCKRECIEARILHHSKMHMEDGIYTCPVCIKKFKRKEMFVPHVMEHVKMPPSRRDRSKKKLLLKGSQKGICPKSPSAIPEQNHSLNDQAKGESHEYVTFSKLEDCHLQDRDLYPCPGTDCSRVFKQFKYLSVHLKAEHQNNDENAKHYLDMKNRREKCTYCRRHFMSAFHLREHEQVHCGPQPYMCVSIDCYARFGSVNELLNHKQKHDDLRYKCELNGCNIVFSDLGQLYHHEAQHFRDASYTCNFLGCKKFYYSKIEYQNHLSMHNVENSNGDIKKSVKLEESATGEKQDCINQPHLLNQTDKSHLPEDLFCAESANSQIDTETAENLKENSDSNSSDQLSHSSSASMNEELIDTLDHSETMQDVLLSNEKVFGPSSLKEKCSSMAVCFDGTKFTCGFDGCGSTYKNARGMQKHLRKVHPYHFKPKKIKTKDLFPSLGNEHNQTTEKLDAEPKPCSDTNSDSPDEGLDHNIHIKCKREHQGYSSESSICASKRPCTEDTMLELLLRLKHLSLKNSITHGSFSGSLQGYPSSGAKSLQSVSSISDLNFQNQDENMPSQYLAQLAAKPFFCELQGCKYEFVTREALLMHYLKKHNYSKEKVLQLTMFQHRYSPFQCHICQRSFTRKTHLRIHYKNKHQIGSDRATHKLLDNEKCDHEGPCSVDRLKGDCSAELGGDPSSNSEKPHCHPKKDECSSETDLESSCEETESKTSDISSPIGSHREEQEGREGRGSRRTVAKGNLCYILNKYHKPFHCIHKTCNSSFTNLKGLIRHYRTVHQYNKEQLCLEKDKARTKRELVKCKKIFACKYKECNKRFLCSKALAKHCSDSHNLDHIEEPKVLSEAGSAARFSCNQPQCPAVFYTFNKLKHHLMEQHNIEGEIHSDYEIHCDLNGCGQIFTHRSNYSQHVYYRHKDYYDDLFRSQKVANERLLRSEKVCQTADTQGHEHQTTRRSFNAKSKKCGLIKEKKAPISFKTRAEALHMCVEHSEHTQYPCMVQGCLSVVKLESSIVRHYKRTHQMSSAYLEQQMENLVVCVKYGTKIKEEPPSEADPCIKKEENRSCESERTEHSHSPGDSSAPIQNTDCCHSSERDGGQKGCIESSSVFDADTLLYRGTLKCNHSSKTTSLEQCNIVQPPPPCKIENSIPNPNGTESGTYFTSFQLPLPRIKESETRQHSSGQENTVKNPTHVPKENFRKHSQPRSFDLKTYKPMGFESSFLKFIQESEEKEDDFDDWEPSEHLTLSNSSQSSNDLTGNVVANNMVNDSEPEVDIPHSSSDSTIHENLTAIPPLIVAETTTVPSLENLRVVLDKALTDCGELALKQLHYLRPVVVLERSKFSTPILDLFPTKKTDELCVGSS
UniProt O60934: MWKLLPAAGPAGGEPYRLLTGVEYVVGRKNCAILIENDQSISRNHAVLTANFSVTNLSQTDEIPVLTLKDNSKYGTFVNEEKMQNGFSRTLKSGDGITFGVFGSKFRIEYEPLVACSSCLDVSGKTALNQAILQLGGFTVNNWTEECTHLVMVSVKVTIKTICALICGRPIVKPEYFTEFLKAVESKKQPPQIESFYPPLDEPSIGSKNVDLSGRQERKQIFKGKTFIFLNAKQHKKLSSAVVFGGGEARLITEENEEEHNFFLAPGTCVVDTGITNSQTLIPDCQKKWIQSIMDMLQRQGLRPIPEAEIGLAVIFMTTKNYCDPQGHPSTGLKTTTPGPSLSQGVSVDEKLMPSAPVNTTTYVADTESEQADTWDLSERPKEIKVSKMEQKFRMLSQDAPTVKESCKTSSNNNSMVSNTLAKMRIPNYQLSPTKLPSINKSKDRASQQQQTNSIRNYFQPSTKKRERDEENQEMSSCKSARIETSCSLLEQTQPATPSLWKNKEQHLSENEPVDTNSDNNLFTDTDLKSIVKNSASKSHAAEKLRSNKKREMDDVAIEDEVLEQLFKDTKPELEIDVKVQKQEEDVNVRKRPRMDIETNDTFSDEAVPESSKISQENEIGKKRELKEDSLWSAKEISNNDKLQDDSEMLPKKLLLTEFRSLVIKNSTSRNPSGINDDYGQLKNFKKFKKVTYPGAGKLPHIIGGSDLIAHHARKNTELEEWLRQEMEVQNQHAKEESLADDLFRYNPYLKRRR
UniProt P45973: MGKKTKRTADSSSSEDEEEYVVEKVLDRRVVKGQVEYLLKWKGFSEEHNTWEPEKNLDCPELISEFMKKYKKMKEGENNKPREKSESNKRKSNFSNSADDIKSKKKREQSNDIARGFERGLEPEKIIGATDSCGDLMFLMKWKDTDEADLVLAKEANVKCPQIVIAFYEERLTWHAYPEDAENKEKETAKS
UniProt Q92878: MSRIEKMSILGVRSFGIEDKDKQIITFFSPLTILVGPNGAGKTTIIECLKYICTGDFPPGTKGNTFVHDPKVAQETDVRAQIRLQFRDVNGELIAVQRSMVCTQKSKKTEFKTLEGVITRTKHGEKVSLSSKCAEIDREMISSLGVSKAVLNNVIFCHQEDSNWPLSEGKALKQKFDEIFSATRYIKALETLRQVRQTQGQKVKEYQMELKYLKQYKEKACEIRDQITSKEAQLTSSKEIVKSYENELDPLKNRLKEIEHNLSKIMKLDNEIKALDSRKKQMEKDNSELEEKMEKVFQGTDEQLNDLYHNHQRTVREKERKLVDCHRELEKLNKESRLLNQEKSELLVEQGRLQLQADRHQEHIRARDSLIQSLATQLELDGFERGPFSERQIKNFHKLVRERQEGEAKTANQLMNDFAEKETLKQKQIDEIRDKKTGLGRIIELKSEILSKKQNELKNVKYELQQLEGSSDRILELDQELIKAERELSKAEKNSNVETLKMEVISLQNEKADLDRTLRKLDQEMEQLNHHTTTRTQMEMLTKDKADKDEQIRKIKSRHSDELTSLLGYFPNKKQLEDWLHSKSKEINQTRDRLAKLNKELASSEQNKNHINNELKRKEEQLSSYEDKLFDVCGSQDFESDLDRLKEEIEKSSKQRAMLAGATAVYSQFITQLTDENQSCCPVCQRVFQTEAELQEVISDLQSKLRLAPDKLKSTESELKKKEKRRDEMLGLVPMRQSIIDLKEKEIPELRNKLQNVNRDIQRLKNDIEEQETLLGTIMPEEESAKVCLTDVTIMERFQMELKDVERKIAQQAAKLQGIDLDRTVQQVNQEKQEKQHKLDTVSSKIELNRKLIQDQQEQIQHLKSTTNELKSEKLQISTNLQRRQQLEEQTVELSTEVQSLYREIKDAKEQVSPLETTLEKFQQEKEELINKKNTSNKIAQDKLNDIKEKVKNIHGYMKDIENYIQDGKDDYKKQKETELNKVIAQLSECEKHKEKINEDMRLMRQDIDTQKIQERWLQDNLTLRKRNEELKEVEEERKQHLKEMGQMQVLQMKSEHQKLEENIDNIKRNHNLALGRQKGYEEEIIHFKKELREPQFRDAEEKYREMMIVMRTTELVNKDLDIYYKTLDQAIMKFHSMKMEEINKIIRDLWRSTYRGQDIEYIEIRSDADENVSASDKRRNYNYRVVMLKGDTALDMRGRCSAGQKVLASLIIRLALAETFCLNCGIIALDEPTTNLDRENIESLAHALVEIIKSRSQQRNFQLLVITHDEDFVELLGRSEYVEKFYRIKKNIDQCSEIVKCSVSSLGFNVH
UniProt Q9UKL0: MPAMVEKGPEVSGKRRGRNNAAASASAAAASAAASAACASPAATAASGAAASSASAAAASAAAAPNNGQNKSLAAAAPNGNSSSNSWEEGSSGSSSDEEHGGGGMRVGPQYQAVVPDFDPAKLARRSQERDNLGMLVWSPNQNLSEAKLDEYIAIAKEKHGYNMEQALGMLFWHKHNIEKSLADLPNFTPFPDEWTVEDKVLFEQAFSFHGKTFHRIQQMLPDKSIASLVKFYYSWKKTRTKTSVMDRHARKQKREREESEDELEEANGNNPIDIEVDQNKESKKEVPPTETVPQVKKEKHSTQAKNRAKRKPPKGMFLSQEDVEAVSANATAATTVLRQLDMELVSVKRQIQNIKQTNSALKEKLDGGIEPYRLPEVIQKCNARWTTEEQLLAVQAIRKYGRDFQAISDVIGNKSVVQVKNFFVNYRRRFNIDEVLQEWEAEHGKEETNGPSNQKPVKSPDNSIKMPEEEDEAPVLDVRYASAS

Molecular target: Myc-DDK-tagged human rearranged L-myc fusion (RLF-Flag) (human) (UniProt Q13129)
Experiment: co-IP; anti-FLAG M2 magnetic beads on nuclear lysate of HEK293T cells transiently transfected with RLF-Flag or empty vector; High stringency IP buffer, 1 hr at 4°C; endogenous partners detected by Western blot; independent samples from those of the mass spectrometry

binding, binds:
NBS1 (from UniProt O60934 1-754)
CBX5 (from UniProt P45973 1-191)
RAD50 (from UniProt Q92878 1-1312)
RCOR1 (from UniProt Q9UKL0 1-485)
